From article PMC9562184
Like-named read-outs stand apart in the source and are kept apart here. No constants are given. Whether binding was seen depends on the method and setting. Binding seen in cells or lysates may run through a third protein. Some results given as binding are weak or reduced against the parent protein; the word gives no strength. For some of these results: Sequences can lack the tags named with a protein. Each block holds one molecule with its values, some of them ahead of it.

Chains of the proteins cited; added tags and fusions are not shown.
UniProt Q9NQB0: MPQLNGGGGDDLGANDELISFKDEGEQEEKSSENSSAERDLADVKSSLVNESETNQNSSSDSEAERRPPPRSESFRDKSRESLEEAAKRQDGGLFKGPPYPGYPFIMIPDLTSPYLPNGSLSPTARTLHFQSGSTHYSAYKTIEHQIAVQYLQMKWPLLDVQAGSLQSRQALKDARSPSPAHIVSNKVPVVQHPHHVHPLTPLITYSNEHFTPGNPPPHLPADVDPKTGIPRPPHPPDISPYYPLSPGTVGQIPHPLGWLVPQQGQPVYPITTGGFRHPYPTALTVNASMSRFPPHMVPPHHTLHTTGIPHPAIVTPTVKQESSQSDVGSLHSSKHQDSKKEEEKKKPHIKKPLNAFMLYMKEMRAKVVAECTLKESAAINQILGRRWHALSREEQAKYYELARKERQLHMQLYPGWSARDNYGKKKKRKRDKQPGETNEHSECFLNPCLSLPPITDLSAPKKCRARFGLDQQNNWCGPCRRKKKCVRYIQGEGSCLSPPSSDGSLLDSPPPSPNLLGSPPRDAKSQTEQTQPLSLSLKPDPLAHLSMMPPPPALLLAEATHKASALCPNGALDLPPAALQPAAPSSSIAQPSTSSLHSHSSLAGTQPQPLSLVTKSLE
UniProt P35222: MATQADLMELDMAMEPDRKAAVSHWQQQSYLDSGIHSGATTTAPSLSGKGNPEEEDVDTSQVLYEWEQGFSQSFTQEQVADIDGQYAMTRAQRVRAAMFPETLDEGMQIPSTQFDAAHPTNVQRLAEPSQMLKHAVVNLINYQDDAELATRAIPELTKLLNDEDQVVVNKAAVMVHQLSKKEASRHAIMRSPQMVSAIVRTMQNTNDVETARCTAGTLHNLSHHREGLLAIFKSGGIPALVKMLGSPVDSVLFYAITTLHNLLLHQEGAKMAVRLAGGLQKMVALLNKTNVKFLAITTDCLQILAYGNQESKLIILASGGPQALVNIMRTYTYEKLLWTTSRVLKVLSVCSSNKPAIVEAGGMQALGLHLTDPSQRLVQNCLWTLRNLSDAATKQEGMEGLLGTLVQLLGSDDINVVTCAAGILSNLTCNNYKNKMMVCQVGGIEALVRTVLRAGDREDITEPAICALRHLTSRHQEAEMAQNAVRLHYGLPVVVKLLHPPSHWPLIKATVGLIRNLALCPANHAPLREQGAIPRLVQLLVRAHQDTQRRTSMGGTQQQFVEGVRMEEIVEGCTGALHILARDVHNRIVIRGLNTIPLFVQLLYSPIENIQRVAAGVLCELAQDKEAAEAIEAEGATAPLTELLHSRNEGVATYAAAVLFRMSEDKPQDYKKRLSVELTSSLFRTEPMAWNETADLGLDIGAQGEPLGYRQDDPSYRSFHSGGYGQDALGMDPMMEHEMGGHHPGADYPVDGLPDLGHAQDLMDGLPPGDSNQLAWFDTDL
UniProt Q13547: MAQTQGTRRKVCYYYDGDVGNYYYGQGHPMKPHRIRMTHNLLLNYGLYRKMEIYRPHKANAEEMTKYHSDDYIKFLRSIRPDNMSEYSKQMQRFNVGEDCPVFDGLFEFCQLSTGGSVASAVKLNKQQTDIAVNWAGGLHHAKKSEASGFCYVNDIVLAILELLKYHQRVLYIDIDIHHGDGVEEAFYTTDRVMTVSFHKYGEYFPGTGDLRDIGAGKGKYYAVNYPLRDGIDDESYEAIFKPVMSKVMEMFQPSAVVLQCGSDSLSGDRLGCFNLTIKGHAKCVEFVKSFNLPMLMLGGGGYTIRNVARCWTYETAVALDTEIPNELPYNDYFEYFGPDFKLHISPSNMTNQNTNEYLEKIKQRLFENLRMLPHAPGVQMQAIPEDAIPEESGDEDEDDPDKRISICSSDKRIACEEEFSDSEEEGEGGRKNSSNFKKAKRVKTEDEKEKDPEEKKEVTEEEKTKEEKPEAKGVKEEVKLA
UniProt O15379: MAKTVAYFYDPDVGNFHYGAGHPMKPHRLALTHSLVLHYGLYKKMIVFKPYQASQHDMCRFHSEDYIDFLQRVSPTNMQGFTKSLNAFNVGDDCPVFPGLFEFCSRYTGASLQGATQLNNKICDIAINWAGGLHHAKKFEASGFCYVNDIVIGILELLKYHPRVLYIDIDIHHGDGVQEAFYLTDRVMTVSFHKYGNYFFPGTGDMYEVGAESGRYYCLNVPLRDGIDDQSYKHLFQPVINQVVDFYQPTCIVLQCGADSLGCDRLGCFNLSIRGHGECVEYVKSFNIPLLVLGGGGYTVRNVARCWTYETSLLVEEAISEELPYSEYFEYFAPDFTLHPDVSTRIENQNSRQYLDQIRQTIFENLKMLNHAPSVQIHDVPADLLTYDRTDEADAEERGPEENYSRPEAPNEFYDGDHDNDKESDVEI

Legend:
[1] = biological target: HA–TCF4 (UniProt Q9NQB0); experiment: co-IP; re-IP: HEK293T co-transfected with Flag–HDAC1 (10 μg), HA–TCF4 (6 μg) and Myc–CREPT (4 μg); first IP with anti-Flag, eluted by 3 × Flag peptide, re-IP with anti-Myc or anti-HA and protein G-Sepharose at 4 °C for 16 h
[2] = biological target: T1, Myc–CREPT (cell cycle-related and expression-elevated protein in tumor) (UniProt Q9NQG5); experiment: as above
T1 sequence: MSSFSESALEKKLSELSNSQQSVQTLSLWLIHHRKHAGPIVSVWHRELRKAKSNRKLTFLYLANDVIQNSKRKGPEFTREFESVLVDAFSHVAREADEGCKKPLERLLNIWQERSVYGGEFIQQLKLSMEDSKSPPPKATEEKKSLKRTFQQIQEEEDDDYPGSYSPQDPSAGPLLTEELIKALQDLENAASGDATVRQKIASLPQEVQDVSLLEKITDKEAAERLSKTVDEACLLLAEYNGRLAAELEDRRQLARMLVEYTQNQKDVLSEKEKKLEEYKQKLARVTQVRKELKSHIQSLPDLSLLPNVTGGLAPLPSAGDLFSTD

[3] = biological target: T2, Myc–CREPT–CID (UniProt Q9NQG5); experiment: co-IP; exogenous: HEK293T cells co-transfected with tagged plasmids; lysates incubated with tag antibodies (anti-HA, anti-Myc, anti-Flag) and protein G-Sepharose overnight at 4 °C, washed four times with lysis buffer (50 mM Tris–Cl, 150 mM NaCl, 1% NP40, 0.5% sodium deoxycholate, 1% SDS, pH 8.0), Western blot; in some panels cells with stable Myc–CREPT or CREPT KO, Flag–HDAC1 or siHDAC1, or with Wnt3a for 20 h
T2 sequence: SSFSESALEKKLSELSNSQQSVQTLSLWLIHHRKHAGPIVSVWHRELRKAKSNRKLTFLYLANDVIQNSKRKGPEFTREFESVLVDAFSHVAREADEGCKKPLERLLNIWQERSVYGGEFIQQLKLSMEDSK

[4] = biological target: HA–TCF4 (UniProt Q9NQB0); experiment: as above
[5] = biological target: T1, Myc–CREPT (cell cycle-related and expression-elevated protein in tumor); experiment: as above
[6] = biological target: Flag–β-catenin (UniProt P35222); experiment: as above
[7] = biological target: T1, Myc–CREPT (cell cycle-related and expression-elevated protein in tumor); experiment: condition: only in the complex first precipitated by the anti-Flag antibody (Flag–HDAC1); co-IP; re-IP: HEK293T co-transfected with Flag–HDAC1 (10 μg), HA–TCF4 (6 μg) and Myc–CREPT (4 μg); first IP with anti-Flag, eluted by 3 × Flag peptide, re-IP with anti-Myc or anti-HA and protein G-Sepharose at 4 °C for 16 h
[8] = biological target: T3, CREPT, endogenous (human (endogenous in HEK293T and DLD1)) (UniProt Q9NQG5); experiment: co-IP; endogenous proteins: nuclear extracts or lysates of HEK293T and DLD1 cells, antibodies against HDAC1/2/3 or CREPT with protein G-Sepharose overnight at 4 °C, Western blot; in some panels cells with stable Myc–CREPT or CREPT KO, Flag–HDAC1 or siHDAC1-1/2, or with Wnt3a
T3 sequence: T1 sequence

[9] = biological target: HDAC1, endogenous (human (endogenous in HEK293T and DLD1)) (UniProt Q13547); experiment: as above
[10] = biological target: HA–TCF4 (UniProt Q9NQB0); experiment: condition: only in the complex first precipitated by the anti-Flag antibody (Flag–HDAC1); co-IP; re-IP: HEK293T co-transfected with Flag–HDAC1 (10 μg), HA–TCF4 (6 μg) and Myc–CREPT (4 μg); first IP with anti-Flag, eluted by 3 × Flag peptide, re-IP with anti-Myc or anti-HA and protein G-Sepharose at 4 °C for 16 h
[11] = biological target: HA–HDAC1 (histone deacetylase 1) (UniProt Q13547); experiment: co-IP; exogenous: HEK293T cells co-transfected with tagged plasmids; lysates incubated with tag antibodies (anti-HA, anti-Myc, anti-Flag) and protein G-Sepharose overnight at 4 °C, washed four times with lysis buffer (50 mM Tris–Cl, 150 mM NaCl, 1% NP40, 0.5% sodium deoxycholate, 1% SDS, pH 8.0), Western blot; in some panels cells with stable Myc–CREPT or CREPT KO, Flag–HDAC1 or siHDAC1, or with Wnt3a for 20 h
[12] = biological target: HDAC1, endogenous (human (endogenous in HEK293T and DLD1)) (UniProt Q13547); experiment: co-IP; endogenous proteins: nuclear extracts or lysates of HEK293T and DLD1 cells, antibodies against HDAC1/2/3 or CREPT with protein G-Sepharose overnight at 4 °C, Western blot; in some panels cells with stable Myc–CREPT or CREPT KO, Flag–HDAC1 or siHDAC1-1/2, or with Wnt3a; remark: listed apart in the source
[13] = biological target: HDAC3, endogenous (human (endogenous in HEK293T and DLD1)) (UniProt O15379); experiment: as above

binding [1]: binds
binding [2]: binds
binding [3]: binds
binding [4]: binds
binding [5]: binds
Molecule: Flag–HDAC1 (from UniProt Q13547 1-482) (enzyme)

binding [5]: binds
Molecule: Flag–β-catenin (from UniProt P35222 1-781)

binding [6]: binds
Molecule: HA–HDAC1 (histone deacetylase 1) (from UniProt Q13547 1-482) (enzyme)

binding [7]: no binding
binding [5]: binds
Molecule: HA–TCF4 (from UniProt Q9NQB0 1-619)

binding [8]: binds
Molecule: HDAC1, endogenous (from UniProt Q13547 1-482) (enzyme)

binding [8]: no binding
Molecule: HDAC3, endogenous (from UniProt O15379 1-428) (enzyme)

binding [9]: binds
binding [8]: binds
Molecule: TCF4, endogenous (from UniProt Q9NQB0 1-619)

binding [9]: binds
binding [8]: binds
Molecule: β-catenin, endogenous (from UniProt P35222 1-781)

binding [10]: no binding
binding [11]: binds
B1: Myc–CREPT (cell cycle-related and expression-elevated protein in tumor) (protein, UniProt Q9NQG5 1-326)
chain: T1 sequence

binding [12]: binds
binding [13]: no binding
B2: CREPT, endogenous (protein, UniProt Q9NQG5 1-326)
chain: T1 sequence
